In paper PMC4974456:
These are yes or no findings as the source states them, for the method shown. Binding seen in cells or lysates may run through a third protein. Some results given as binding are weak or reduced against the parent protein; the word gives no strength. For some assays here: Sequences can lack the tags named with a protein.

The chains behind the UniProt entries cited, without tags or fusion partners.
UniProt P28033: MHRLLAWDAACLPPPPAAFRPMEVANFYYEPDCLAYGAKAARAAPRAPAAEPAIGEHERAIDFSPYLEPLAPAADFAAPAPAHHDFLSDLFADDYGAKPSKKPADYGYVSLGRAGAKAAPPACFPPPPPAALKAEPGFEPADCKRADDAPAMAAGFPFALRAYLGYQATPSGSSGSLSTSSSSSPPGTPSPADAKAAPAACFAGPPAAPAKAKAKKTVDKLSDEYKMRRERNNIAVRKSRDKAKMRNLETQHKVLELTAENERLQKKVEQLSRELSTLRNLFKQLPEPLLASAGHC

How the values were obtained:
[1] = target: T1, CRTC3, endogenous in mouse adipocytes and adipose tissue (mouse (endogenous in BAT SVF cells, 3T3-L1 cells and adipose tissues)) (UniProt Q91X84); assay: co-IP; endogenous proteins; lysates of differentiated BAT SVF cells (methods: BAT cell line), differentiated 3T3-L1 cells and adipose tissue (BAT); IP with 2 ug antibody overnight at 4 °C, protein A/G agarose; western blot
T1 sequence: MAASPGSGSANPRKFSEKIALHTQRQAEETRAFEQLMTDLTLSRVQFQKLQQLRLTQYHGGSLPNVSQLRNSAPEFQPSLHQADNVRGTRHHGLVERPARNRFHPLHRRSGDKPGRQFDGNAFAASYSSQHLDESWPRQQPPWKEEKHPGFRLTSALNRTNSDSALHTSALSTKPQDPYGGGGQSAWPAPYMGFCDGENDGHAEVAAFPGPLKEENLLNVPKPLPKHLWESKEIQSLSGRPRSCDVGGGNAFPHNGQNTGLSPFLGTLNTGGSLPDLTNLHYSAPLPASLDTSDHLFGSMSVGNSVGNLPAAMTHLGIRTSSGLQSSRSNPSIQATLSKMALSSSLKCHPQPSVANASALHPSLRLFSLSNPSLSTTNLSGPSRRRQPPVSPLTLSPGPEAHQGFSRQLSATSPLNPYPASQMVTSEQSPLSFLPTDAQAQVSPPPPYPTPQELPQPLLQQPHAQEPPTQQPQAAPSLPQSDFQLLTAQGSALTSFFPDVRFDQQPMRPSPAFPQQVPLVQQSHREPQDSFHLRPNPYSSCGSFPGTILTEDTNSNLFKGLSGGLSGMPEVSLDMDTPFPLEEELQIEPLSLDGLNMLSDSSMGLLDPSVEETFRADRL

[2] = target: T2, Flag-CRTC3 (from pcDNA-Flag-CRTC3) (UniProt Q91X84); assay: co-IP; 293T cells co-transfected with pcDNA-Flag-CRTC3 and pcDNA-C/EBPβ, harvested after 36 h; IP with CRTC3, C/EBPβ or Flag antibody overnight at 4 °C, protein A/G agarose; blotted with CRTC3 and C/EBPβ antibodies
T2 sequence: T1 sequence

Lkb1 in 293T cell lysate = target: T3, Lkb1 in 293T cell lysate (UniProt Q15831); assay: co-IP; 293T cells transfected with pcDNA-Flag-CRTC3, harvested after 36 h; lysate (500 ug total protein) precleared with protein A/G agarose; IP with 2 ug Flag, Lkb1 or CRTC3 antibody overnight at 4 °C; washed with cold PBS; blotted with Lkb1 and CRTC3 antibodies
T3 sequence: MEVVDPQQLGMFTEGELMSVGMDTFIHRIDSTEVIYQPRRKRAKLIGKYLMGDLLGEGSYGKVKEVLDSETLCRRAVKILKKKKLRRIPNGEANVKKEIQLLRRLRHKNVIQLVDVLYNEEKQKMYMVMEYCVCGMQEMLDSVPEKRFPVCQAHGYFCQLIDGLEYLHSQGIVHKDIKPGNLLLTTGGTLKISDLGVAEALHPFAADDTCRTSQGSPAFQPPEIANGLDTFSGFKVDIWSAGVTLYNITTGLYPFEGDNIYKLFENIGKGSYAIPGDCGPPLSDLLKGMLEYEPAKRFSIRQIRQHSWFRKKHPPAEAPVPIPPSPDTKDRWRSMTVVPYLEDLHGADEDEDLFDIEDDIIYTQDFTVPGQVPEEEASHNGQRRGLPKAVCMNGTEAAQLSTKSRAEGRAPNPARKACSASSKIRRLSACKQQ

[3] = target: C/EBPβ (from pcDNA-C/EBPβ) (UniProt P28033); assay: co-IP; 293T cells co-transfected with pcDNA-Flag-CRTC3 and pcDNA-C/EBPβ, harvested after 36 h; IP with CRTC3, C/EBPβ or Flag antibody overnight at 4 °C, protein A/G agarose; blotted with CRTC3 and C/EBPβ antibodies
[4] = target: T4, Lkb1, endogenous in mouse adipocytes and adipose tissue (mouse (endogenous in BAT SVF cells, 3T3-L1 cells and adipose tissues)) (UniProt Q9WTK7); assay: co-IP; endogenous proteins; lysates of differentiated BAT SVF cells (methods: BAT cell line), differentiated 3T3-L1 cells and adipose tissue (BAT); IP with 2 ug antibody overnight at 4 °C, protein A/G agarose; western blot
T4 sequence: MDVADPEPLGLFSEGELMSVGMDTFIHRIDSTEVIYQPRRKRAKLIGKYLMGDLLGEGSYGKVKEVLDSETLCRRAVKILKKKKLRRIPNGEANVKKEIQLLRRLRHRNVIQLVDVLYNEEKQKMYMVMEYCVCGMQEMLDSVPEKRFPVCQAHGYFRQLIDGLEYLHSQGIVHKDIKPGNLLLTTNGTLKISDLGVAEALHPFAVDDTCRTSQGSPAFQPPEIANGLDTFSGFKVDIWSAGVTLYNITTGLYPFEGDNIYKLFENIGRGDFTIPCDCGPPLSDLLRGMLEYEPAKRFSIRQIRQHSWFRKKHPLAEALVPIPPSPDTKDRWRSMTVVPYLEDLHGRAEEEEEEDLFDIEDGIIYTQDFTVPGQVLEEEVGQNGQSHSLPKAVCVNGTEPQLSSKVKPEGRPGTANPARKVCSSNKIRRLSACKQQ

C/EBPβ, endogenous in mouse adipocytes and BAT (from UniProt P28033 1-296)
binding [1]: binds

C/EBPβ (from pcDNA-C/EBPβ) (from UniProt P28033 1-296)
binding [2]: binds

B1: Flag-CRTC3 (from pcDNA-Flag-CRTC3) (protein, UniProt Q91X84 1-619)
chain: T1 sequence
binding (Lkb1 in 293T cell lysate): binds | binding [3]: binds

B2: CRTC3, endogenous in mouse adipocytes and adipose tissue (protein, UniProt Q91X84 1-619)
chain: T1 sequence
binding [4]: binds
